Measurements published in the supplement of paper PMC12823440, “Inhibitors supercharge kinase turnover through native proteolytic circuits” (Nature, 2025).
Structures can show the parent of a compound that is named as a salt. The list shows a part of the results. The calls rarely recur for the same compound in another form.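 In K562 cells expressing nanoluciferase-fused kinases, luminescence was recorded at 4 h intervals between 2 and 18 h, normalized as percent of control with DMSO at 100% and a positive control at 0%. A significant (2 sigma) signal drop marks a time point as decreased. The authors' rule for a hit is not shown and takes in more than the number of time points.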

The chains behind the UniProt entries cited, without tags or fusion partners. Where a name states a change or a piece, a line headed by the entry shows the natural chain unless it says otherwise.
UniProt Q9Y6E0: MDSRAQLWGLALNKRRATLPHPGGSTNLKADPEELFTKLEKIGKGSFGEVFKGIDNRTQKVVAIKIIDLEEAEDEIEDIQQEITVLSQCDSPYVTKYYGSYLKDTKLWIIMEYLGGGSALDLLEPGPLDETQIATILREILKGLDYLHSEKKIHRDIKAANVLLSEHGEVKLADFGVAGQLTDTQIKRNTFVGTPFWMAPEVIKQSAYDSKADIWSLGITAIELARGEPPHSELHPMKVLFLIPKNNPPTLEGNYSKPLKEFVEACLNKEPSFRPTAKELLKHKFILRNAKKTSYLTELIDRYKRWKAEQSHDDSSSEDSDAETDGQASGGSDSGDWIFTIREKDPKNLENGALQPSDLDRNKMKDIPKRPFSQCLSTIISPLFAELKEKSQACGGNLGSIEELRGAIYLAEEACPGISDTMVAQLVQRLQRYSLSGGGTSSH

Target: STK24 (UniProt Q9Y6E0)
Experiment: number of time points (of 5) at which kinase-Nluc abundance scored as decreased, DMSO-normalised (count); higher = more persistent destabilization
Conditions: K562; 2-18 h

Structure (SMILES) | number of time points
Nc1nc2cc(-c3ccc4ncc(C(=O)N5CCOCC5)n4c3)ccc2o1 [Serabelisib] (10 µM) | 0
OCCN(CCO)c1ccc(C(c2ccc(Cl)cc2)c2ccc(N(CCO)CCO)cc2)cc1 (10 µM) | 0
O=c1nc(N2CCOCC2)oc2c(-c3cccc4c3sc3ccccc34)cccc12 (10 µM) | 0
c1ccc(-c2nn3c(c2-c2ccnc4cc(OCCN5CCOCC5)ccc24)CCC3)nc1 (10 µM) | 0
O=C(Nc1ccc(Cl)c(Cl)c1)Nc1ccc2nnsc2c1 (10 µM) | 0
N#C/C(=C(/N)Sc1ccc(N)cc1)c1ccccc1C(F)(F)F (10 µM) | 0
O=c1ccoc2cc(O)ccc12 [7-Hydroxy-4H-chromen-4-one] (10 µM) | 0
COc1cc(C(=O)N2CCC(N3CCN(C)CC3)CC2)ccc1Nc1ncc2c(n1)N(C)c1ccccc1C(=O)N2C (10 µM) | 0
CC(=O)Nc1nc2ccc(-c3cnc(C)c(NC(=O)OC4CCCCC4)c3)cc2s1 (10 µM) | 0
O=C1NC(=O)C(c2cn(-c3ccccc3)nc2-c2ccc(F)cc2)N1 (stereo unspecified) (10 µM) | 0
CCCCNC(=N)NC(=N)N [Buformin (hydrochloride)] (2.5 µM) | 0
C[C@H]1[C@H](OC(=O)CCC(=O)O)O[C@@H]2O[C@@]3(C)CC[C@H]4[C@H](C)CC[C@@H]1[C@@]24OO3 [Artesunate] (2.5 µM) | 0
COc1ncc(Nc2ncc([C@@H](C)N3CCN(S(C)(=O)=O)CC3)cc2-c2nc(C)nc(N)n2)cc1F (10 µM) | 0
COC1(C(=O)N[C@@H](C)c2ccc(-n3cc(F)cn3)nc2)CCC(c2nc(C)cc(Nc3cc(C)[nH]n3)n2)CC1 (stereo partly drawn) [trans-Pralsetinib] (2.5 µM) | 0
CC(=O)NCCc1c[nH]c2ccc(O)cc12 [N-Acetyl-5-hydroxytryptamine] (10 µM) | 0
O=[N+]([O-])c1ccc(Sc2cccc[n+]2[O-])c2nonc12 (2.5 µM) | 0
COc1ccc(CNc2nc(N(CCO)CCO)nc3c2ncn3C(C)C)cc1 (2.5 µM) | 0
CC(CCc1ccccn1)(CCc1ccccn1)C(=O)c1ccccc1 (10 µM) | 0
[O-][n+]1cccc(-c2nc3c(Cl)cccc3cc2[C@@H](Nc2ncnc3cccnc23)C(F)(F)F)c1 [Seletalisib] (10 µM) | 0
Cc1cc2cc(Oc3ccnc(Nc4cccc(CS(=O)(=O)NCCN(C)C)c4)n3)ccc2[nH]1 [Sulfatinib] (10 µM) | 0
O=C1NC(=O)C(c2cnc3ccccn23)=C1c1cn2c3c(cc(F)cc13)CN(C(=O)N1CCCCC1)CC2 (2.5 µM) | 0
Cc1ccc(-c2ncn(-c3ccc(Nc4nccc(-c5cccc(N6CCOCC6)c5)n4)cc3)n2)cn1 (10 µM) | 0
COc1ccc2c(c1OC)OC1c3ccc(O)cc3OCC21 (stereo unspecified) [Methylnissolin] (10 µM) | 0
Cn1cc(-c2ccc3nnc(C(F)(F)c4ccc5ncccc5c4)n3n2)cn1 (10 µM) | 0
Nc1ncc(-c2ccc(C(=O)N3CCNCC3)cc2)nc1-c1ccc(C(F)(F)F)cc1 (10 µM) | 0
CN(C)Cc1cccc(N=C(c2ccccc2)c2c(O)[nH]c3cc(C(=O)N(C)C)ccc23)c1 (10 µM) | 0

Quoted from the entries so far (7 entries):
Structure (SMILES) | number of time points
O=C1NC(=O)C(c2cn(-c3ccccc3)nc2-c2ccc(F)cc2)N1 (stereo unspecified) (10 µM) | 0
CCCCNC(=N)NC(=N)N [Buformin (hydrochloride)] (2.5 µM) | 0
C[C@H]1[C@H](OC(=O)CCC(=O)O)O[C@@H]2O[C@@]3(C)CC[C@H]4[C@H](C)CC[C@@H]1[C@@]24OO3 [Artesunate] (2.5 µM) | 0
COc1ncc(Nc2ncc([C@@H](C)N3CCN(S(C)(=O)=O)CC3)cc2-c2nc(C)nc(N)n2)cc1F (10 µM) | 0
COC1(C(=O)N[C@@H](C)c2ccc(-n3cc(F)cn3)nc2)CCC(c2nc(C)cc(Nc3cc(C)[nH]n3)n2)CC1 (stereo partly drawn) [trans-Pralsetinib] (2.5 µM) | 0
CC(=O)NCCc1c[nH]c2ccc(O)cc12 [N-Acetyl-5-hydroxytryptamine] (10 µM) | 0
O=[N+]([O-])c1ccc(Sc2cccc[n+]2[O-])c2nonc12 (2.5 µM) | 0
